Laboratory results published in the supplement of paper PMC11006884.
Only a part is listed here, and it is no random draw.

Amino acid sequences for entries named in this document (tags omitted). A change or cut given only in a name is not applied to a line headed by its entry.
UniProt Q9Y620: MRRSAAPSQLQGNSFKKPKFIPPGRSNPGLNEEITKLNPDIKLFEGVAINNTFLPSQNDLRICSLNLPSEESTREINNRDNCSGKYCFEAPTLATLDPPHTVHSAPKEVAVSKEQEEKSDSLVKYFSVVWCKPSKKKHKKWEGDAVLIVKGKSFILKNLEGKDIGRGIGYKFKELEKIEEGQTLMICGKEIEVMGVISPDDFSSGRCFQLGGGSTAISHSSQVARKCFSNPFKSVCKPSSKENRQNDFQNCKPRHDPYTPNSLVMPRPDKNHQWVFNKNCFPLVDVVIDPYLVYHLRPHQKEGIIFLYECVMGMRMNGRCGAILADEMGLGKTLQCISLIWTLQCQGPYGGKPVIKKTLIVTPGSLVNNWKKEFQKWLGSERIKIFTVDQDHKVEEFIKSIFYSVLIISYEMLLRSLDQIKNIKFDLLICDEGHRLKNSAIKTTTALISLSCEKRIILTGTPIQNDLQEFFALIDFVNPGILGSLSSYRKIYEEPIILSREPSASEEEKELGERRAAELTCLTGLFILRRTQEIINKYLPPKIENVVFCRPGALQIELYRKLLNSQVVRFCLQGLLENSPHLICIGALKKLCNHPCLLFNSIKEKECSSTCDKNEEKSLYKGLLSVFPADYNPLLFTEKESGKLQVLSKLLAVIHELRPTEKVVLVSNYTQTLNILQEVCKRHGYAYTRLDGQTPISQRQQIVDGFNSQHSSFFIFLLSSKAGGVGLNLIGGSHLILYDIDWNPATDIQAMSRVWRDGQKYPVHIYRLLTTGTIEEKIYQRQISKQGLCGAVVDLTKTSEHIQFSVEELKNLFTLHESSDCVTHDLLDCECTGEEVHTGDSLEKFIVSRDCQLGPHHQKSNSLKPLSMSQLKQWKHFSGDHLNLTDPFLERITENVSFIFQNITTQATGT
UniProt Q9Y490: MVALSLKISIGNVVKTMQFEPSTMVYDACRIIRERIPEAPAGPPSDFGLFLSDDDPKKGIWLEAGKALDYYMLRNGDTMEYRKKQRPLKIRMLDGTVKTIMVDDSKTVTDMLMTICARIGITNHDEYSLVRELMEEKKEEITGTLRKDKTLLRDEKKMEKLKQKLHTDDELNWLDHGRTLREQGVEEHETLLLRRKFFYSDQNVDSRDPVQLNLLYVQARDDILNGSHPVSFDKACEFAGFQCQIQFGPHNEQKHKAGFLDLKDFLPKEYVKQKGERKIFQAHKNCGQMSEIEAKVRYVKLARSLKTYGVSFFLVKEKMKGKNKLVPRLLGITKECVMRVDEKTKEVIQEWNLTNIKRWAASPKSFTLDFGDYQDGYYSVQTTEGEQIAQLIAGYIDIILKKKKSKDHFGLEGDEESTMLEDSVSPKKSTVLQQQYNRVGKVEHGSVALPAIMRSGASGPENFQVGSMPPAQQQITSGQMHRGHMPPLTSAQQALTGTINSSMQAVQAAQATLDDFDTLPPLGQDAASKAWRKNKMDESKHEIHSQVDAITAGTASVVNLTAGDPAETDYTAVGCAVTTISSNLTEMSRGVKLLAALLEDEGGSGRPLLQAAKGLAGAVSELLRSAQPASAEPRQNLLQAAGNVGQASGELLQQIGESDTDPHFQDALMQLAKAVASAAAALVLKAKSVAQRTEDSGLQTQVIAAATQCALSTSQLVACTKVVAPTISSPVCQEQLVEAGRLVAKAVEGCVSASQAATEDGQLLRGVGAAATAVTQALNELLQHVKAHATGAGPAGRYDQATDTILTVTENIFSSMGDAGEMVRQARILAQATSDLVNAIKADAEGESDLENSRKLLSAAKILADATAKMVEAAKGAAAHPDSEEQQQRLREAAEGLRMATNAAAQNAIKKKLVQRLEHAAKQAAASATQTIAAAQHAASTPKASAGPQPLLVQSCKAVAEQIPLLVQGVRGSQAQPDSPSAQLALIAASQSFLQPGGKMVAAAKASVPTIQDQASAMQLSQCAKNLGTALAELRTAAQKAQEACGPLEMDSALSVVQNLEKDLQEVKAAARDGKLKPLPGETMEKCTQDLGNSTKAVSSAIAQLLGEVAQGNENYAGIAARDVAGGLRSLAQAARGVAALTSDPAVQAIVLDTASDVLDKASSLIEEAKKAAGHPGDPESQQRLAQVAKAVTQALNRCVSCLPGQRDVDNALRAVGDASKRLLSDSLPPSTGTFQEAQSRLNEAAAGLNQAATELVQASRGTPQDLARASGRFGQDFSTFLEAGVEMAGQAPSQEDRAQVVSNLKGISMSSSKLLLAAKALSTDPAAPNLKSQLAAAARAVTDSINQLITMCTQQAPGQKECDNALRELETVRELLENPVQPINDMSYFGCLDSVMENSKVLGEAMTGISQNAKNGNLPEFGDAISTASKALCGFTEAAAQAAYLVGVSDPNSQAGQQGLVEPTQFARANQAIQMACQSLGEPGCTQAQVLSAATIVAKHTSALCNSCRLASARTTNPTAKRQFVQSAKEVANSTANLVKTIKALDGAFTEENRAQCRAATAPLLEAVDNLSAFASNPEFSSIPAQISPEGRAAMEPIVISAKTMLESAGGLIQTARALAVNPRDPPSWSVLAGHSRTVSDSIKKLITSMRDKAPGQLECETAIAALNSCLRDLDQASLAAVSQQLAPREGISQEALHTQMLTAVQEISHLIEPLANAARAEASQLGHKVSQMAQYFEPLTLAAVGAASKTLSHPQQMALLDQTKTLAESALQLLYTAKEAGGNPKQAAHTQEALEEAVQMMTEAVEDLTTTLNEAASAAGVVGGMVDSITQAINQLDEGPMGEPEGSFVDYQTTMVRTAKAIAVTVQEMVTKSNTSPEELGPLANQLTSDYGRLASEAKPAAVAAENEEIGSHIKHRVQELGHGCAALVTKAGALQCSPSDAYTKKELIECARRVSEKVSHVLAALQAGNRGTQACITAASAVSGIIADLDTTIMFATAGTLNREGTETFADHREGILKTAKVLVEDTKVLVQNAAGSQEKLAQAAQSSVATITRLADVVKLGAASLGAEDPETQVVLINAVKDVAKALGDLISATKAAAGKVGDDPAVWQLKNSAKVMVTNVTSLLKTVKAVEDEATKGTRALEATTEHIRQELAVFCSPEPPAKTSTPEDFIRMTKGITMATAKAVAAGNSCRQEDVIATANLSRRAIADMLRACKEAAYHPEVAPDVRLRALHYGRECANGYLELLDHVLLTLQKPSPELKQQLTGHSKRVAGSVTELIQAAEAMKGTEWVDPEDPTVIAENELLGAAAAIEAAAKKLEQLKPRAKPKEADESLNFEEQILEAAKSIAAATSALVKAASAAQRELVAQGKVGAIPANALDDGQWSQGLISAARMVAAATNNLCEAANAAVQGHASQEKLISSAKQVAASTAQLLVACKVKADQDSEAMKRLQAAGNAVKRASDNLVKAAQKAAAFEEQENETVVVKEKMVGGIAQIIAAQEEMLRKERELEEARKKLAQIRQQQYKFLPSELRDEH
UniProt Q9Y5P6: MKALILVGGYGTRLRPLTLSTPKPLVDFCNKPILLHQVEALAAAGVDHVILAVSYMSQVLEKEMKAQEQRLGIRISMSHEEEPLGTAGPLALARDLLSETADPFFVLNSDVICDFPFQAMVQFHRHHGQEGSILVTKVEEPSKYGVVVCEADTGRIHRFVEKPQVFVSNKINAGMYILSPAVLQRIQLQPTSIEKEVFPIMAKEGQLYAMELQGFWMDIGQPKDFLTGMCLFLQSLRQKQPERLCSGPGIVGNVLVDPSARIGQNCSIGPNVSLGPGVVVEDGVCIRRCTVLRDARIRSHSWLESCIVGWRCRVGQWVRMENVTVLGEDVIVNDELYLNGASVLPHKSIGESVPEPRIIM
UniProt Q9Y496, whole entry: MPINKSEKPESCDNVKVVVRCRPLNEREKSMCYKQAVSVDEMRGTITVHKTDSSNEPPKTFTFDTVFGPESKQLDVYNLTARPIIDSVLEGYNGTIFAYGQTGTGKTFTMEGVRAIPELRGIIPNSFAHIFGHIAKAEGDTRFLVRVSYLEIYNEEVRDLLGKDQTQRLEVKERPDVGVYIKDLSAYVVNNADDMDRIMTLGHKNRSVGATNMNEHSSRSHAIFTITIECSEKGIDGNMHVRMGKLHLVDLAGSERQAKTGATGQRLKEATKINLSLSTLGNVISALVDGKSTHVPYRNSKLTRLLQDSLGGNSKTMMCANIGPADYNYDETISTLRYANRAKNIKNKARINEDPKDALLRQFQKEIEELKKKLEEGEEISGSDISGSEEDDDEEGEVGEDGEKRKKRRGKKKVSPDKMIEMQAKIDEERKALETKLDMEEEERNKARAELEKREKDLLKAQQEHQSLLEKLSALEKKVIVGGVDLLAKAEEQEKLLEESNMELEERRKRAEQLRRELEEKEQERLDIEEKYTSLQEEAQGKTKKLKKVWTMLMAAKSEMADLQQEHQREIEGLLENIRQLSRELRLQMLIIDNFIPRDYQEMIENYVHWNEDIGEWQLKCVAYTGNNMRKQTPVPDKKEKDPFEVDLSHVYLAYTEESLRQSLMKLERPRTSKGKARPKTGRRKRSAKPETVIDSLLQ
UniProt Q9Y4W6: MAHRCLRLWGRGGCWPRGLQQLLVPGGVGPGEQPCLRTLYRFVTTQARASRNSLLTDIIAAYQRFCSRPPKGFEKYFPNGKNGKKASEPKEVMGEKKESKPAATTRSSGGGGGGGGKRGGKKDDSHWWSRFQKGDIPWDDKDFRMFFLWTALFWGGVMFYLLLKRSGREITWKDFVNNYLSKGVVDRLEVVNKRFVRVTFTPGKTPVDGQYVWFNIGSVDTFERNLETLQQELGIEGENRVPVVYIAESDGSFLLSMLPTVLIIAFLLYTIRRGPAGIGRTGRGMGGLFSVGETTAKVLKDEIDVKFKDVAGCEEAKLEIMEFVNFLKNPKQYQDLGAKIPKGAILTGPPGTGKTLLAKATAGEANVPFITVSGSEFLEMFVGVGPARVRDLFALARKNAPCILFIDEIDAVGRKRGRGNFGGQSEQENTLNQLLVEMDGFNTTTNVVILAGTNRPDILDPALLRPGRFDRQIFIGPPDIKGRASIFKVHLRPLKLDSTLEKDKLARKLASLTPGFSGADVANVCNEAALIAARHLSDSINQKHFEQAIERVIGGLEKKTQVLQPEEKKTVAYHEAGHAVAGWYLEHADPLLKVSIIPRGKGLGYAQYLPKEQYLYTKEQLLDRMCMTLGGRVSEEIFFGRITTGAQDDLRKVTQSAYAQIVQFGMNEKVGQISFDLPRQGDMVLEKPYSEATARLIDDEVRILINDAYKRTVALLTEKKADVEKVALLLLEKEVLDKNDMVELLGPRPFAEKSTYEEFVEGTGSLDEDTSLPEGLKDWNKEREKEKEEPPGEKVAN
UniProt Q9Y4R8, whole entry, looked up: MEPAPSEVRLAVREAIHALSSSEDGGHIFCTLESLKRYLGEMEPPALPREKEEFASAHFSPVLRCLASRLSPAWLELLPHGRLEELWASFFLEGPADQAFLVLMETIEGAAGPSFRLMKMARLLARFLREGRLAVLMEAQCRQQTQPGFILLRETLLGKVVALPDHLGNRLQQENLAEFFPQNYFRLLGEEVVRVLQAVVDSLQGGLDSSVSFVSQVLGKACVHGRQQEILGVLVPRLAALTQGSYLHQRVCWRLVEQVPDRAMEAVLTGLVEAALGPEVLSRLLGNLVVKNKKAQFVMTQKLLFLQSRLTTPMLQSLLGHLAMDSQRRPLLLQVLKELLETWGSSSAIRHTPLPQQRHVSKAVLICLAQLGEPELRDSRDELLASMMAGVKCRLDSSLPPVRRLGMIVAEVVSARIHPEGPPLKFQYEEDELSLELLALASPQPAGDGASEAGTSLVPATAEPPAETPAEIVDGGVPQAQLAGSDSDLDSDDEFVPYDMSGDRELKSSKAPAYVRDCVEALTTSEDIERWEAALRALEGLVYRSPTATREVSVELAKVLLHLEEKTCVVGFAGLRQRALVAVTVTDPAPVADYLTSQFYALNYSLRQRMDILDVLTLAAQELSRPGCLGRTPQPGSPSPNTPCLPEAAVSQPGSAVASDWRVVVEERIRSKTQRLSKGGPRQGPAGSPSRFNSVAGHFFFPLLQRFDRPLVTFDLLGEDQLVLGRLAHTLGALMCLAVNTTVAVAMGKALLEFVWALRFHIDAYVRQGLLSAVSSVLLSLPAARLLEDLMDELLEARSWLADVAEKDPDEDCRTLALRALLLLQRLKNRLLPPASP

Each target was assayed with COC(=O)C#Cc1ccccc1 [methyl 3-phenylpropiolate] (assay: log2 ratio of iodoacetamide-alkyne labeling of the cysteine site, DMSO over compound (competition); higher = stronger covalent engagement of the cysteine by the compound, active = 1 or more). Settings: 500 µM; treatment time 1 h; system: HEK293T cell lysate.
Method in brief: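 After 1 h at ambient temperature with vehicle or electrophile (500 µM), HEK293T lysate (2 mg/mL) was labelled for 1 h with iodoacetamide alkyne and clicked to sCIP-TMT reagents. Pooled samples were trypsin-digested overnight at 37 °C, streptavidin-enriched, acid-eluted and analysed by Orbitrap Eclipse LC-MS/MS with FAIMS, then quantified in FragPipe over three replicates with duplicate channels. A cysteine's log2 competition ratio is its mean control-channel over mean compound-channel reporter intensity. Cysteines quantified in only one replicate were not included.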

log2 ratio of iodoacetamide-alkyne labeling, inactive:
TACC3 C206 (UniProt Q9Y6A5) -0.132, RAD54B C63 (UniProt Q9Y620) 0.651, SEC23IP C457 (UniProt Q9Y6Y8) 0.296, TLN1 C1353 (UniProt Q9Y490) -0.00168, GMPPB C245 (UniProt Q9Y5P6) 0.331, KIF3A C621 (UniProt Q9Y496) 0.962, AFG3L2 C313 (UniProt Q9Y4W6) 0.313, AFG3L2 C402 (UniProt Q9Y4W6) 0.253, TELO2 C628 (UniProt Q9Y4R8) 0.243
